This is one part of the list.
Key:
Test in all cases: glycan array binding signal (z-score within array); higher = stronger binding
Settings in all cases: glycan notation: IUPAC condensed, linker removed
[1] = target: Fuc(a1-2)[Gal(a1-3)]Gal(b1-4)GlcNAc(b1-2)Man(a1-3)[Fuc(a1-2)[Gal(a1-3)]Gal(b1-4)GlcNAc(b1-2)Man(a1-6)]Man(b1-4)GlcNAc(b1-4)GlcNAc
How it was run: (§1)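 The binding signal is a Z-score computed within each array. Data were drawn from 3228 arrays in the Consortium for Functional Glycomics database, restricted to those with a known protein sequence. Scores were averaged over arrays of the same protein sequence at different concentrations or buffers, and over linkers, and negative values can be taken as non-binding.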

[2] = target: Fuc(a1-2)[Gal(a1-3)]Gal(b1-4)[Fuc(a1-3)]GlcNAc
How it was run: as §1

[3] = target: Fuc(a1-2)[Gal(a1-4)]Gal(b1-4)GlcNAc
How it was run: as §1

[4] = target: Fuc(a1-2)[GalNAc(a1-3)]Gal
How it was run: as §1

[5] = target: Fuc(a1-2)[GalNAc(a1-3)]Gal(b1-3)GlcNAc
How it was run: as §1

[6] = target: Fuc(a1-2)[GalNAc(a1-3)]Gal(b1-3)GlcNAc(b1-2)Man(a1-3)[Fuc(a1-2)[GalNAc(a1-3)]Gal(b1-3)GlcNAc(b1-2)Man(a1-6)]Man(b1-4)GlcNAc(b1-4)GlcNAc
How it was run: as §1

[7] = target: Fuc(a1-2)[GalNAc(a1-3)]Gal(b1-4)Glc
How it was run: as §1

[8] = target: Fuc(a1-2)[GalNAc(a1-3)]Gal(b1-4)GlcNAc
How it was run: as §1

[9] = target: Fuc(a1-2)[GalNAc(a1-3)]Gal(b1-4)GlcNAc(b1-2)Man(a1-3)[GalNAc(a1-3)[Fuc(a1-2)]Gal(b1-4)GlcNAc(b1-2)Man(a1-6)]Man(b1-4)GlcNAc(b1-4)GlcNAc
How it was run: as §1

[10] = target: Fuc(a1-2)[GalNAc(a1-3)]Gal(b1-4)GlcNAc(b1-3)Gal(b1-4)GlcNAc
How it was run: as §1

[11] = target: Fuc(a1-2)[GalNAc(a1-3)]Gal(b1-4)GlcNAc(b1-3)Gal(b1-4)GlcNAc(b1-3)Gal(b1-4)GlcNAc
How it was run: as §1

[12] = target: Fuc(a1-2)[GalNAc(a1-3)]Gal(b1-4)[Fuc(a1-3)]GlcNAc
How it was run: as §1

[13] = target: Fuc(a1-2)[GalNAc(a1-4)]Gal(b1-4)GlcNAc
How it was run: as §1

[14] = target: Fuc(a1-2)[GalNAc(b1-3)]Gal
How it was run: as §1

Fuc(a1-3)GlcNAc = target: Fuc(a1-3)GlcNAc
How it was run: as §1

[15] = target: Fuc(a1-3)[Gal(b1-4)]Glc6S
How it was run: as §1

[16] = target: Fuc(a1-3)[Gal(b1-4)]GlcNAc
How it was run: as §1

[17] = target: Fuc(a1-3)[Gal(b1-4)]GlcNAc(b1-2)Man(a1-3)[Fuc(a1-3)[Gal(b1-4)]GlcNAc(b1-2)Man(a1-6)]Man(b1-4)GlcNAc(b1-4)GlcNAc
How it was run: as §1

[18] = target: Fuc(a1-3)[Gal(b1-4)]GlcNAc(b1-2)Man(a1-6)[Gal(b1-4)GlcNAc(b1-2)Man(a1-3)]Man(b1-4)GlcNAc(b1-4)GlcNAc
How it was run: as §1

[19] = target: Fuc(a1-3)[Gal(b1-4)]GlcNAc(b1-3)Gal(b1-3)[Fuc(a1-4)]GlcNAc
How it was run: as §1

[20] = target: Fuc(a1-3)[Gal(b1-4)]GlcNAc(b1-4)Gal(b1-4)[Fuc(a1-3)]GlcNAc
How it was run: as §1

[21] = target: Fuc(a1-3)[Gal(b1-4)]GlcNAc(b1-4)Gal(b1-4)[Fuc(a1-3)]GlcNAc(b1-4)Gal(b1-4)[Fuc(a1-3)]GlcNAc
How it was run: as §1

[22] = target: Fuc(a1-3)[Gal(b1-4)]GlcNAc6S
How it was run: as §1

[23] = target: Fuc(a1-3)[Gal3S(b1-4)]Glc6S
How it was run: as §1

[24] = target: Fuc(a1-3)[Gal3S(b1-4)]GlcNAc
How it was run: as §1

[25] = target: Fuc(a1-3)[Gal3S(b1-4)]GlcNAc6S
How it was run: as §1

[26] = target: Fuc(a1-3)[GalNAc(b1-4)]GlcNAc
How it was run: as §1

[27] = target: Fuc(a1-3)[Neu5Ac(a2-3)]Gal(b1-4)GlcNAc(b1-3)GalNAc
How it was run: as §1

Fuc(a1-4)GlcNAc = target: Fuc(a1-4)GlcNAc
How it was run: as §1

Fuc(b1-3)GlcNAc = target: Fuc(b1-3)GlcNAc
How it was run: as §1

Gal(a1-2)Gal = target: Gal(a1-2)Gal
How it was run: as §1

Gal(a1-3)Gal = target: Gal(a1-3)Gal
How it was run: as §1

Gal(a1-3)Gal(b1-3)GlcNAc = target: Gal(a1-3)Gal(b1-3)GlcNAc
How it was run: as §1

Gal(a1-3)Gal(b1-4)Glc = target: Gal(a1-3)Gal(b1-4)Glc
How it was run: as §1

Gal(a1-3)Gal(b1-4)GlcNAc = target: Gal(a1-3)Gal(b1-4)GlcNAc
How it was run: as §1

[28] = target: Gal(a1-3)Gal(b1-4)[Fuc(a1-3)]GlcNAc
How it was run: as §1

[29] = target: Gal(a1-3)Gal(b1-4)[Fuc(a1-3)]GlcNAc(b1-2)Man(a1-3)[Gal(a1-3)Gal(b1-4)[Fuc(a1-3)]GlcNAc(b1-2)Man(a1-6)]Man(b1-4)GlcNAc(b1-4)GlcNAc
How it was run: as §1

Gal(a1-3)GalNAc = target: Gal(a1-3)GalNAc
How it was run: as §1

[30] = target: Gal(a1-3)[Gal(a1-4)]Gal(b1-4)GlcNAc
How it was run: as §1

Gal(a1-4)Gal(b1-4)Glc = target: Gal(a1-4)Gal(b1-4)Glc
How it was run: as §1

Gal(a1-4)Gal(b1-4)GlcNAc = target: Gal(a1-4)Gal(b1-4)GlcNAc
How it was run: as §1

[31] = target: Gal(a1-4)Gal(b1-4)GlcNAc(b1-3)Gal(b1-4)Glc
How it was run: as §1

Gal(a1-4)GlcNAc = target: Gal(a1-4)GlcNAc
How it was run: as §1

Gal(a1-6)Glc = target: Gal(a1-6)Glc
How it was run: as §1

Gal(b1-2)Gal = target: Gal(b1-2)Gal
How it was run: as §1

B1: CTLX (Homo sapiens), Q6UXS0 (protein)
chain: SLCPLFWMEFKGHCYRFFPLNKTWAEADLYCSEFSVGRKSAKLASIHSWEENVFVYDLVNSCVPGIPADVWTGLHDHRQEGQFEWTDGSSYDYSYWDGSQPDDGVHADPEEEDCVQIWYRPTSALRSWNDNTCSRKFPFVCKIPSLTIH
[1]
  glycan array binding signal (z-score): -0.888
[2]
  glycan array binding signal (z-score): 2.81
[3]
  glycan array binding signal (z-score): 0.513
[4]
  glycan array binding signal (z-score): 2.58
[5]
  glycan array binding signal (z-score): 1
[6]
  glycan array binding signal (z-score): -0.789
[7]
  glycan array binding signal (z-score): 0.494
[8]
  glycan array binding signal (z-score): 0.143
[9]
  glycan array binding signal (z-score): 0.689
[10]
  glycan array binding signal (z-score): 1.64
[11]
  glycan array binding signal (z-score): 2.19
[12]
  glycan array binding signal (z-score): -0.551
[13]
  glycan array binding signal (z-score): -0.572
[14]
  glycan array binding signal (z-score): -0.477
Fuc(a1-3)GlcNAc
  glycan array binding signal (z-score): -0.999
[15]
  glycan array binding signal (z-score): -0.17
[16]
  glycan array binding signal (z-score): -0.533
[17]
  glycan array binding signal (z-score): -0.821
[18]
  glycan array binding signal (z-score): -0.272
[19]
  glycan array binding signal (z-score): -0.295
[20]
  glycan array binding signal (z-score): 1.06
[21]
  glycan array binding signal (z-score): -0.813
[22]
  glycan array binding signal (z-score): 2.08
[23]
  glycan array binding signal (z-score): 5.87
[24]
  glycan array binding signal (z-score): 0.41
[25]
  glycan array binding signal (z-score): -0.164
[26]
  glycan array binding signal (z-score): 1.16
[27]
  glycan array binding signal (z-score): 1.89
Fuc(a1-4)GlcNAc
  glycan array binding signal (z-score): -0.448
Fuc(b1-3)GlcNAc
  glycan array binding signal (z-score): -0.912
Gal(a1-2)Gal
  glycan array binding signal (z-score): 0.5
Gal(a1-3)Gal
  glycan array binding signal (z-score): 0.482
Gal(a1-3)Gal(b1-3)GlcNAc
  glycan array binding signal (z-score): 0.525
Gal(a1-3)Gal(b1-4)Glc
  glycan array binding signal (z-score): 1.11
Gal(a1-3)Gal(b1-4)GlcNAc
  glycan array binding signal (z-score): -0.489
[28]
  glycan array binding signal (z-score): -0.514
[29]
  glycan array binding signal (z-score): 2.91
Gal(a1-3)GalNAc
  glycan array binding signal (z-score): -1.04
[30]
  glycan array binding signal (z-score): -1.24
Gal(a1-4)Gal(b1-4)Glc
  glycan array binding signal (z-score): -0.799
Gal(a1-4)Gal(b1-4)GlcNAc
  glycan array binding signal (z-score): 0.014
[31]
  glycan array binding signal (z-score): -0.109
Gal(a1-4)GlcNAc
  glycan array binding signal (z-score): -0.679
Gal(a1-6)Glc
  glycan array binding signal (z-score): -0.79
Gal(b1-2)Gal
  glycan array binding signal (z-score): 0.821

From the supplement of paper PMC8728848
